# In the supplement of paper PMC8728848:
# The list shows a part of the results.
# Assays:
# Assay in all cases: glycan array binding signal (z-score within array); higher = stronger binding
# Conditions in all cases: glycan notation: IUPAC condensed, linker removed
# Fuc(a1-2)Gal = target: Fuc(a1-2)Gal
# Outline: (§1)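 Glycan array data were curated from 3228 arrays in the Consortium for Functional Glycomics database and kept only where the protein sequence was available. Glycan names were converted to IUPAC-condensed notation, and columns mapping to the same glycan were averaged. The binding signal is a within-array Z-score, averaged across arrays of the same protein sequence at different concentrations or buffers and across linkers. Negative Z-scores can be read as non-binding.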
# Fuc(a1-2)Gal(b1-3)GalNAc = target: Fuc(a1-2)Gal(b1-3)GalNAc
# Outline: as §1
# [1] = target: Fuc(a1-2)Gal(b1-3)GalNAc(a1-3)[Fuc(a1-2)]Gal(b1-4)Glc
# Outline: as §1
# [2] = target: Fuc(a1-2)Gal(b1-3)GalNAc(a1-3)[Fuc(a1-2)]Gal(b1-4)GlcNAc
# Outline: as §1
# [3] = target: Fuc(a1-2)Gal(b1-3)GalNAc(b1-3)Gal
# Outline: as §1
# [4] = target: Fuc(a1-2)Gal(b1-3)GalNAc(b1-3)Gal(a1-4)Gal(b1-4)Glc
# Outline: as §1
# [5] = target: Fuc(a1-2)Gal(b1-3)GalNAc(b1-4)[Neu5Ac(a2-3)]Gal(b1-4)Glc
# Outline: as §1
# Fuc(a1-2)Gal(b1-3)GlcNAc = target: Fuc(a1-2)Gal(b1-3)GlcNAc
# Outline: as §1
# [6] = target: Fuc(a1-2)Gal(b1-3)GlcNAc(b1-2)Man(a1-3)[Fuc(a1-2)Gal(b1-3)GlcNAc(b1-2)Man(a1-6)]Man(b1-4)GlcNAc(b1-4)GlcNAc
# Outline: as §1
# [7] = target: Fuc(a1-2)Gal(b1-3)GlcNAc(b1-2)Man(a1-3)[Fuc(a1-2)Gal(b1-3)GlcNAc(b1-2)Man(a1-6)]Man(b1-4)GlcNAc(b1-4)[Fuc(a1-6)]GlcNAc
# Outline: as §1
# [8] = target: Fuc(a1-2)Gal(b1-3)GlcNAc(b1-3)Gal(b1-4)Glc
# Outline: as §1
# [9] = target: Fuc(a1-2)Gal(b1-3)GlcNAc(b1-3)GalNAc
# Outline: as §1
# [10] = target: Fuc(a1-2)Gal(b1-3)GlcNAc(b1-3)[Fuc(a1-2)Gal(b1-3)GlcNAc(b1-6)]GalNAc
# Outline: as §1
# [11] = target: Fuc(a1-2)Gal(b1-3)GlcNAc(b1-3)[Gal(b1-4)GlcNAc(b1-6)]Gal(b1-4)Glc
# Outline: as §1
# [12] = target: Fuc(a1-2)Gal(b1-3)GlcNAc(b1-3)[Neu5Ac(a2-6)Gal(b1-4)GlcNAc(b1-6)]Gal(b1-4)Glc
# Outline: as §1
# [13] = target: Fuc(a1-2)Gal(b1-3)GlcNAc6S
# Outline: as §1
# [14] = target: Fuc(a1-2)Gal(b1-3)[Fuc(a1-4)]GlcNAc
# Outline: as §1
# [15] = target: Fuc(a1-2)Gal(b1-3)[Fuc(a1-4)]GlcNAc(b1-2)Man(a1-3)[Fuc(a1-2)Gal(b1-3)[Fuc(a1-4)]GlcNAc(b1-2)Man(a1-3)]Man(b1-4)GlcNAc(b1-4)GlcNAc
# Outline: as §1
# [16] = target: Fuc(a1-2)Gal(b1-3)[Fuc(a1-4)]GlcNAc(b1-2)Man(a1-3)[Fuc(a1-2)Gal(b1-3)[Fuc(a1-4)]GlcNAc(b1-2)Man(a1-6)]Man(b1-4)GlcNAc(b1-4)[Fuc(a1-6)]GlcNAc(b1-4)[Fuc(a1-6)]GlcNAc
# Outline: as §1
# [17] = target: Fuc(a1-2)Gal(b1-3)[Fuc(a1-4)]GlcNAc(b1-3)[Fuc(a1-3)[Gal(b1-4)]GlcNAc(b1-6)]Gal(b1-4)Glc
# Outline: as §1
# [18] = target: Fuc(a1-2)Gal(b1-3)[Fuc(a1-4)]GlcNAc(b1-3)[Gal(b1-4)GlcNAc(b1-6)]Gal(b1-4)Glc
# Outline: as §1
# Fuc(a1-2)Gal(b1-4)Glc = target: Fuc(a1-2)Gal(b1-4)Glc
# Outline: as §1
# Fuc(a1-2)Gal(b1-4)Glc6S = target: Fuc(a1-2)Gal(b1-4)Glc6S
# Outline: as §1
# Fuc(a1-2)Gal(b1-4)GlcNAc = target: Fuc(a1-2)Gal(b1-4)GlcNAc
# Outline: as §1
# [19] = target: Fuc(a1-2)Gal(b1-4)GlcNAc(b1-2)Man
# Outline: as §1
# [20] = target: Fuc(a1-2)Gal(b1-4)GlcNAc(b1-2)Man(a1-3)[Fuc(a1-2)Gal(b1-4)GlcNAc(b1-2)Man(a1-6)]Man(b1-4)GlcNAc(b1-4)GlcNAc
# Outline: as §1
# [21] = target: Fuc(a1-2)Gal(b1-4)GlcNAc(b1-2)Man(a1-3)[Fuc(a1-2)Gal(b1-4)GlcNAc(b1-2)Man(a1-6)]Man(b1-4)GlcNAc(b1-4)[Fuc(a1-6)]GlcNAc
# Outline: as §1
# [22] = target: Fuc(a1-2)Gal(b1-4)GlcNAc(b1-2)[Fuc(a1-2)Gal(b1-4)GlcNAc(b1-4)]Man(a1-3)[Fuc(a1-2)Gal(b1-4)GlcNAc(b1-2)Man(a1-6)]Man(b1-4)GlcNAc(b1-4)GlcNAc
# Outline: as §1
# [23] = target: Fuc(a1-2)Gal(b1-4)GlcNAc(b1-3)Gal(b1-4)GlcNAc
# Outline: as §1
# [24] = target: Fuc(a1-2)Gal(b1-4)GlcNAc(b1-3)Gal(b1-4)GlcNAc(b1-2)Man(a1-3)[Fuc(a1-2)Gal(b1-4)GlcNAc(b1-3)Gal(b1-4)GlcNAc(b1-2)Man(a1-6)]Man(b1-4)GlcNAc(b1-4)GlcNAc
# Outline: as §1
binder,measurement,setting,value
CM2 (Cordyceps militaris) (protein) MEIAEQNVGKSCAIVNLIPPKEGSNIWTAKQVTIARNLPPNRGTGRHQIDWSFGPVKVTGYVDTTNWEIGVTVSIMGIDLGTVYGNLRDGVVLNVDLFLAKGQVRFYLKNGNEVWVHLSVEIRFDGKFEGDYKIITV,glycan array binding signal (z-score),Fuc(a1-2)Gal,-0.015
same,glycan array binding signal (z-score),Fuc(a1-2)Gal(b1-3)GalNAc,1.42
same,glycan array binding signal (z-score),[1],0.616
same,glycan array binding signal (z-score),[2],-0.08
same,glycan array binding signal (z-score),[3],-0.451
same,glycan array binding signal (z-score),[4],-0.777
same,glycan array binding signal (z-score),[5],0.28
same,glycan array binding signal (z-score),Fuc(a1-2)Gal(b1-3)GlcNAc,-0.535
same,glycan array binding signal (z-score),[6],-0.147
same,glycan array binding signal (z-score),[7],-0.231
same,glycan array binding signal (z-score),[8],0.107
same,glycan array binding signal (z-score),[9],0.327
same,glycan array binding signal (z-score),[10],0.023
same,glycan array binding signal (z-score),[11],-1.78
same,glycan array binding signal (z-score),[12],0.492
same,glycan array binding signal (z-score),[13],-0.285
same,glycan array binding signal (z-score),[14],-0.124
same,glycan array binding signal (z-score),[15],0.211
same,glycan array binding signal (z-score),[16],0.032
same,glycan array binding signal (z-score),[17],-0.546
same,glycan array binding signal (z-score),[18],0.83
same,glycan array binding signal (z-score),Fuc(a1-2)Gal(b1-4)Glc,0.296
same,glycan array binding signal (z-score),Fuc(a1-2)Gal(b1-4)Glc6S,-0.639
same,glycan array binding signal (z-score),Fuc(a1-2)Gal(b1-4)GlcNAc,0.094
same,glycan array binding signal (z-score),[19],0.18
same,glycan array binding signal (z-score),[20],-0.171
same,glycan array binding signal (z-score),[21],1.73
same,glycan array binding signal (z-score),[22],-0.363
same,glycan array binding signal (z-score),[23],-1.01
same,glycan array binding signal (z-score),[24],0.257

# Quoted at random: two records from the list
binder,measurement,setting,value
CM2 (Cordyceps militaris) (protein) MEIAEQNVGKSCAIVNLIPPKEGSNIWTAKQVTIARNLPPNRGTGRHQIDWSFGPVKVTGYVDTTNWEIGVTVSIMGIDLGTVYGNLRDGVVLNVDLFLAKGQVRFYLKNGNEVWVHLSVEIRFDGKFEGDYKIITV,glycan array binding signal (z-score),[22],-0.363
same,glycan array binding signal (z-score),[11],-1.78
